In article doi:10.1101/2025.04.04.647332:
No constants are given. Whether binding was seen depends on the method and setting. Binding seen in cells or lysates may run through a third protein. Some binding calls cover weakened binding; strength is not graded here.

Chains of the proteins cited; added tags and fusions are not shown. Lines headed by an entry give the natural chain unless they say otherwise; changes in a name come on top.
UniProt P20585: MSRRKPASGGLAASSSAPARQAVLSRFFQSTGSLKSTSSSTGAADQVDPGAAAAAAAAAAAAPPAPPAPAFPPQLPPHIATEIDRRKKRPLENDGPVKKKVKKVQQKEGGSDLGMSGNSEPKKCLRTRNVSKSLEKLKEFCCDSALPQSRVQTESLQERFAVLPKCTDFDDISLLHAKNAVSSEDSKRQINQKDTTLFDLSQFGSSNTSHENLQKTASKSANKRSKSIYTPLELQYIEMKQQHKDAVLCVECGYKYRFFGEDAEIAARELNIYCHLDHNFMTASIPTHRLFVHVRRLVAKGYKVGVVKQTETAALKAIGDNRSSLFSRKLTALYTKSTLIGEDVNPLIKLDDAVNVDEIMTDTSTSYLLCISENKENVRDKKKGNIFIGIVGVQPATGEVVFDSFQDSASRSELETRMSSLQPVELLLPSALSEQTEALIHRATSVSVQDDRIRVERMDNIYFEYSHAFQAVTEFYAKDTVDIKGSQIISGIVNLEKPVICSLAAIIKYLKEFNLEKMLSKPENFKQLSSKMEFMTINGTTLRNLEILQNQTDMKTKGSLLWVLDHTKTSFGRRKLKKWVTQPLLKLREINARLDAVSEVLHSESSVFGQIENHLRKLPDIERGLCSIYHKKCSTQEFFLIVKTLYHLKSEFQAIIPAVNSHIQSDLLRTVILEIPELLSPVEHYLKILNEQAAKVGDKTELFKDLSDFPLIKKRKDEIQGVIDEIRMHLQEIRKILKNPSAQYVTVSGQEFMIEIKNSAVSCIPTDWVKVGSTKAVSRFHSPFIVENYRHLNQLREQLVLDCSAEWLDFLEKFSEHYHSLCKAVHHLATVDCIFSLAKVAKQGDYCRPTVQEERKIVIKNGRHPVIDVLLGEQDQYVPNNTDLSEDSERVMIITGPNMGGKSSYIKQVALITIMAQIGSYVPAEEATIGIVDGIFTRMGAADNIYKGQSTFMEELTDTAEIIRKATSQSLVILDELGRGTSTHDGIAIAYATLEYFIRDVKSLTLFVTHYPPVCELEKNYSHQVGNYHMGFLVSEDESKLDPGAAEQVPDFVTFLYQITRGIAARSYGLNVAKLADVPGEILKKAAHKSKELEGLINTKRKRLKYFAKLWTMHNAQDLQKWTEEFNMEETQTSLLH
UniProt P43246: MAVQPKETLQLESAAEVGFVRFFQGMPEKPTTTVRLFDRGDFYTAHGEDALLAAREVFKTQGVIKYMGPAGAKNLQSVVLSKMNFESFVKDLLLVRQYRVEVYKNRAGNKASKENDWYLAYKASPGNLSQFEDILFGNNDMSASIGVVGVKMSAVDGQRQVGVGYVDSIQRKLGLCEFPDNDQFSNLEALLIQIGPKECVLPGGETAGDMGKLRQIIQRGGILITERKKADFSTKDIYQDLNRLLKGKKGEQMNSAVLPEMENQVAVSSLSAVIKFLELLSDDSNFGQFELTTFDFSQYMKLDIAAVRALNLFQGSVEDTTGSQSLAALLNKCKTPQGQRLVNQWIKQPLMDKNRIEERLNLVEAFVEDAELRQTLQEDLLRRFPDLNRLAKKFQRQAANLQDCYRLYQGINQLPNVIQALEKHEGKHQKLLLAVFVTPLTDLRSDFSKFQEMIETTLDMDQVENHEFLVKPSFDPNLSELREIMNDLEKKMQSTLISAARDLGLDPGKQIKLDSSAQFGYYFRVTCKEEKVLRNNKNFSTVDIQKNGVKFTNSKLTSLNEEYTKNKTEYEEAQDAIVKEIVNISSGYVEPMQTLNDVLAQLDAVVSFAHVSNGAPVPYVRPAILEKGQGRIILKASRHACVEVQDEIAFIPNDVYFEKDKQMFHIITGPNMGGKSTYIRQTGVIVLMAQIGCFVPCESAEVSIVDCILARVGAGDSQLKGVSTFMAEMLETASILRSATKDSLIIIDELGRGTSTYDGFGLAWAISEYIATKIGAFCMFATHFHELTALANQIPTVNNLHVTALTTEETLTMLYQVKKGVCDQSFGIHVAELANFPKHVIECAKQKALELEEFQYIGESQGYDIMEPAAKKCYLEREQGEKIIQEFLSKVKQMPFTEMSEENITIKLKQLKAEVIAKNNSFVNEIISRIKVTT

Biological target: DNA2 (as in the co-IP and western blot of Fig. 2c, d) (UniProt P51530)
Experiment: co-IP; whole-cell lysates (0.5% Nonidet P-40, 50 mM Tris-HCl, 0.1 mM EDTA, 150 mM NaCl) with an antibody against a specific protein and Protein A/G magnetic beads; wash with 500 mM NaCl; western blot

Row | binding | Substance
1 | no binding | MSH3 (from UniProt P20585 1-1137)
2 | binds | MutSα (MSH2-MSH6) (as in the co-IP and western blot of Fig. 2c, d) (from UniProt P43246 1-934; P52701 1-1360) (complex)
